Experimental data reported in the supplement of paper PMC6411743.
± gives the standard deviation of the averaged measurements. This is a selection; strong and weak results do not stand in their true shares.

Sequences of proteins named here, by UniProt entry; tags and fusion partners are left off. A change or cut given only in a name is not applied to a line headed by its entry.
UniProt Q9BWJ5: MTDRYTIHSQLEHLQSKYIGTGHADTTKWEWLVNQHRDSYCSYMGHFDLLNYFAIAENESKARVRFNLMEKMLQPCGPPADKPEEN
UniProt Q9BT25: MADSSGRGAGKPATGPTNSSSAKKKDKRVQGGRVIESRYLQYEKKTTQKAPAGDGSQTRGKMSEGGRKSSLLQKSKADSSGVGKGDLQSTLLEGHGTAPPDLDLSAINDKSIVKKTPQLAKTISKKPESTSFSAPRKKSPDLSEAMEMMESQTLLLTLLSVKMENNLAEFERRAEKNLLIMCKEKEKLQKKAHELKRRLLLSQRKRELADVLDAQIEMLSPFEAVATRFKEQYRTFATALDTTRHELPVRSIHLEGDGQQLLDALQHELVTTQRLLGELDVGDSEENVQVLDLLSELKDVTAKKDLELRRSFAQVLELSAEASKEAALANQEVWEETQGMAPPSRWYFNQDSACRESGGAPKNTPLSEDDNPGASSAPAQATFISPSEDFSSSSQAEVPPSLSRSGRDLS
UniProt Q99767, whole entry: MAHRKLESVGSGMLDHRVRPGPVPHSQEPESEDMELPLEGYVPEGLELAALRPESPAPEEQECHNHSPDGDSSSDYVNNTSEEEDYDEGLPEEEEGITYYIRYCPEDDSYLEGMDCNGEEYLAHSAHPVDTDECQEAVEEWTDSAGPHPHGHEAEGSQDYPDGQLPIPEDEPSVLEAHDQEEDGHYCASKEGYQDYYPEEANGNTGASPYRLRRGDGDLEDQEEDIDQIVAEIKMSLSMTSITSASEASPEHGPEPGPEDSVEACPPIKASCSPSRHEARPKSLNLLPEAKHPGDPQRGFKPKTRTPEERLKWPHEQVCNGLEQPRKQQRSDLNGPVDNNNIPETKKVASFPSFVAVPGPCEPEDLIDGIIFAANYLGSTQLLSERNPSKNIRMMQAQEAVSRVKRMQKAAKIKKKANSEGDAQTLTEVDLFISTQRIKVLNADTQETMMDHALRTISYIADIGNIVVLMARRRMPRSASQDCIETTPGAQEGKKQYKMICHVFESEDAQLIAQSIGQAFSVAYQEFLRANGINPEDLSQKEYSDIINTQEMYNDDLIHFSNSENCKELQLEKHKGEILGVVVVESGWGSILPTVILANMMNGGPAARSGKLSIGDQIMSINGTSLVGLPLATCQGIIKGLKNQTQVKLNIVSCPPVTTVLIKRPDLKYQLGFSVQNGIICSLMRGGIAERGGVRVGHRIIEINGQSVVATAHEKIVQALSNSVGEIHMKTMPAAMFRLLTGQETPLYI
UniProt Q9BWS9: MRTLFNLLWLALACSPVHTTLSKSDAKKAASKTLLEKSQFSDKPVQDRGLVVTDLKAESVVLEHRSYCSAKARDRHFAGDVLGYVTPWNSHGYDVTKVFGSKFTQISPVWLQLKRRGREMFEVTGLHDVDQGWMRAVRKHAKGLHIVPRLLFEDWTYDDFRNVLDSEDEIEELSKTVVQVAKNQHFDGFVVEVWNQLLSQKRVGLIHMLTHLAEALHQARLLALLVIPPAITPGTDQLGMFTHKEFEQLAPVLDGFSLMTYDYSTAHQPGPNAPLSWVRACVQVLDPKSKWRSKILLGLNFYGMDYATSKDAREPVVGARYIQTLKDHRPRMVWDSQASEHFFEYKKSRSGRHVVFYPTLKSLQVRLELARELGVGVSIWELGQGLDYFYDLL
UniProt Q9BUT1: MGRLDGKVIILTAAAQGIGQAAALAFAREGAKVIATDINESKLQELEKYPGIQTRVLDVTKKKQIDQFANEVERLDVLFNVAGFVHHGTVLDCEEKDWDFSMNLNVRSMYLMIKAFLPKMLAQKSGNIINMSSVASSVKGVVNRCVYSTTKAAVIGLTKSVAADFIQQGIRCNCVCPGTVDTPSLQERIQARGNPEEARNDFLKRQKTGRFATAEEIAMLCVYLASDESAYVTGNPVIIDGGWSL
UniProt Q9BTD8: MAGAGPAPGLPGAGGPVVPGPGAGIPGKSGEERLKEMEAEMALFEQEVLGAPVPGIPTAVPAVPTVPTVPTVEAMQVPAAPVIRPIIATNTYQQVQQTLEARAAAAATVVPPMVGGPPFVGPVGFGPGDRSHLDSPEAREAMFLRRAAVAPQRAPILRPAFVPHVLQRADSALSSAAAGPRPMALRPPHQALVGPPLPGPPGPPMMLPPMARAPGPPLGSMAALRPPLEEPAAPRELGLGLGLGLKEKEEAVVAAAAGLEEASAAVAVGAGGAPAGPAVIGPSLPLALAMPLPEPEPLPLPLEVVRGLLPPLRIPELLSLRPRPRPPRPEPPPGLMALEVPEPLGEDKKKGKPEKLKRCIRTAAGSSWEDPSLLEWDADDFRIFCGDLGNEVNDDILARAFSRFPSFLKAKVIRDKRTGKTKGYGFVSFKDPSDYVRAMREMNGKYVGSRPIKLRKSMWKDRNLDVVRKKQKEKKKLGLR
UniProt Q9BX68: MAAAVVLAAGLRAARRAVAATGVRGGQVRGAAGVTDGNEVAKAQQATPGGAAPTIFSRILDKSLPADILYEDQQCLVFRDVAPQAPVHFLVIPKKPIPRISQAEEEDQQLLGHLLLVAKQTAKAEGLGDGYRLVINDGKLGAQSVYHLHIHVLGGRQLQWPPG
UniProt Q9BW91: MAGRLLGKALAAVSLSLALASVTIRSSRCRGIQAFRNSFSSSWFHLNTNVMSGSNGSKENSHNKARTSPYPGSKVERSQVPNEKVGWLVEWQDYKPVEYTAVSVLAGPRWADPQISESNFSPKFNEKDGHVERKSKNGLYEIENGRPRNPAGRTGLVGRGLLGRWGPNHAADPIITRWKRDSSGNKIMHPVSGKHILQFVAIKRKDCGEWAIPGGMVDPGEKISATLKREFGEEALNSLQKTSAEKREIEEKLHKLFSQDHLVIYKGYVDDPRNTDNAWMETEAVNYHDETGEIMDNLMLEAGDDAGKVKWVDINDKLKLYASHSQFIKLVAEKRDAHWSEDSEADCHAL
UniProt Q9BZV1: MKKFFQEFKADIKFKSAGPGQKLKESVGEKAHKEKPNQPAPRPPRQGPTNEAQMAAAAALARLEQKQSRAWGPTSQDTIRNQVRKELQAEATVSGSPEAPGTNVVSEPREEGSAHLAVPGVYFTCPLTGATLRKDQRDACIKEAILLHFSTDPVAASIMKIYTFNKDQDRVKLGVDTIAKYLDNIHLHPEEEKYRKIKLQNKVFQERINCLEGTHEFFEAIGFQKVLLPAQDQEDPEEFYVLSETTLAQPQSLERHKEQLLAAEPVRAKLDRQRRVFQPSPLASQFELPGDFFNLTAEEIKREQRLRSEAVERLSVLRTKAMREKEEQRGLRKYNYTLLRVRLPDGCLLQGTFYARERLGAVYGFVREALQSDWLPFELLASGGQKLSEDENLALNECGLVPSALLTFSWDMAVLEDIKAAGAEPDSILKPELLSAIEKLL
UniProt Q9BRD0: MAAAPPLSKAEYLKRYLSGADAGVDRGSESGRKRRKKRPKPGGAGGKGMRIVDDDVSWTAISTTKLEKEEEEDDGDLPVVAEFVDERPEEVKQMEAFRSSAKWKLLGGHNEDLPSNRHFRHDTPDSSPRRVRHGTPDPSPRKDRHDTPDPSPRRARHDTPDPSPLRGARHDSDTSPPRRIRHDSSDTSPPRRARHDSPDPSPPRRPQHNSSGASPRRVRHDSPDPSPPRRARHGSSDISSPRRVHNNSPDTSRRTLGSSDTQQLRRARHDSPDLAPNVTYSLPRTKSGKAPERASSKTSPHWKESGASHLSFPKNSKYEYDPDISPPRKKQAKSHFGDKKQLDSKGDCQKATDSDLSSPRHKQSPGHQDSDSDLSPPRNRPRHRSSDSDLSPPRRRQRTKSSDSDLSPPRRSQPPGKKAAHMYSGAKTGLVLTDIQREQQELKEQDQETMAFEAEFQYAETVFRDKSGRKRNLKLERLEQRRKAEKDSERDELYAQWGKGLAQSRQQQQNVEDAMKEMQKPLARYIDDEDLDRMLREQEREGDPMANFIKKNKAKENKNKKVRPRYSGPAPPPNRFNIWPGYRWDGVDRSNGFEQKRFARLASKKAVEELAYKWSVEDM
UniProt Q9BVQ7: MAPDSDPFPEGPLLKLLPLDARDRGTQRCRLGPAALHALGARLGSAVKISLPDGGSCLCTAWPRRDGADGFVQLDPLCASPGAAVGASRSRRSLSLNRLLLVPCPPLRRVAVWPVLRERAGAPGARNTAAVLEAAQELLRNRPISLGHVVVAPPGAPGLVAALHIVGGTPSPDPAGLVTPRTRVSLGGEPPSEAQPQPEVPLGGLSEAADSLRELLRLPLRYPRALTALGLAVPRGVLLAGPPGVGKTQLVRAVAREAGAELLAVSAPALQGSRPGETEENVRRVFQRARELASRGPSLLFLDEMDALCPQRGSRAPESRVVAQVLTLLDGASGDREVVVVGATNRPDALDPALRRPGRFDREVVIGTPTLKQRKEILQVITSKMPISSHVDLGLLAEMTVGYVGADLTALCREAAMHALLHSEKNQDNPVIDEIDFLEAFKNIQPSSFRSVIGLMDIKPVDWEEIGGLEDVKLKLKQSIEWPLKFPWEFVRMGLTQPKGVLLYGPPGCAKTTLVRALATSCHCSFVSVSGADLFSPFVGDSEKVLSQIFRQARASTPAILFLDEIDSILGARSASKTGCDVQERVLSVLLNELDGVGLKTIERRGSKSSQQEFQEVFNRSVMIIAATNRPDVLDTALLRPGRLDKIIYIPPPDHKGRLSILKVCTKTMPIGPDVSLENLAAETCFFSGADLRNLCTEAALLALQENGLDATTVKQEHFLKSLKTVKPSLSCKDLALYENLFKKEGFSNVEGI
UniProt Q99829: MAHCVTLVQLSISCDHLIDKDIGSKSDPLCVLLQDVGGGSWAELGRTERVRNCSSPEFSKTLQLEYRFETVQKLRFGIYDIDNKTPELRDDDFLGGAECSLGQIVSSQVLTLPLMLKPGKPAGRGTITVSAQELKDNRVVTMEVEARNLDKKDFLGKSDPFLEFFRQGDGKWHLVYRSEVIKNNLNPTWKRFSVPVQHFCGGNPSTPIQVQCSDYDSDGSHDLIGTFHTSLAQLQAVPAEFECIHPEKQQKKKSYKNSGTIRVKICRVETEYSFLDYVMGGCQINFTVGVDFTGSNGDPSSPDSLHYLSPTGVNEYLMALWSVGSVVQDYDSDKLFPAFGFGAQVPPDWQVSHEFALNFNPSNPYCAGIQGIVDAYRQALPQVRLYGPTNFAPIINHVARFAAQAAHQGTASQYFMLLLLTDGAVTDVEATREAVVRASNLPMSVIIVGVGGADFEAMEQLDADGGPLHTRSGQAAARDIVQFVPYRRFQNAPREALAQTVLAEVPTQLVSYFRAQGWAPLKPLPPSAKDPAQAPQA
UniProt Q9BRJ7: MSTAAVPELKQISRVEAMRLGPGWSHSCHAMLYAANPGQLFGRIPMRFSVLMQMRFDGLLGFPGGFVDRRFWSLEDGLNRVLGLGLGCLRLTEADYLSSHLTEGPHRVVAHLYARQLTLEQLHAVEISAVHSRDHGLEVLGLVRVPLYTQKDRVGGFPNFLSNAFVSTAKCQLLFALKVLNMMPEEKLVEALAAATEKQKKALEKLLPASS
UniProt Q9BTE3: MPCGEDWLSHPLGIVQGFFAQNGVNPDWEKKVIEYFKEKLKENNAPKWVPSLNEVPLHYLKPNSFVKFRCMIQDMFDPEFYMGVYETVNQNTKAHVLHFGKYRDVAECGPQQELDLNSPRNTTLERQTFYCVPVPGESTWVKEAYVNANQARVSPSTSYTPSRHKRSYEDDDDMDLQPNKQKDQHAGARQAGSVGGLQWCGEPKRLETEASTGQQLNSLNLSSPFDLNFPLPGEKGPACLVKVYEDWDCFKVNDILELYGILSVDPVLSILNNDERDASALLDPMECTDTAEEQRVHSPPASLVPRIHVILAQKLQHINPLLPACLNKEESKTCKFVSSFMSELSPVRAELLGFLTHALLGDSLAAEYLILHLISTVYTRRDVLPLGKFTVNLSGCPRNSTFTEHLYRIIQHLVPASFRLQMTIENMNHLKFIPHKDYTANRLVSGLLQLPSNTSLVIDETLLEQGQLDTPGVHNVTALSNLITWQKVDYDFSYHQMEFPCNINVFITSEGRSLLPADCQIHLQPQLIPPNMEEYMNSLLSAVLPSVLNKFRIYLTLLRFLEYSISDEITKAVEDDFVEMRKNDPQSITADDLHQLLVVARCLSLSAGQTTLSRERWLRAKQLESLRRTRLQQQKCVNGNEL
UniProt Q9BV81: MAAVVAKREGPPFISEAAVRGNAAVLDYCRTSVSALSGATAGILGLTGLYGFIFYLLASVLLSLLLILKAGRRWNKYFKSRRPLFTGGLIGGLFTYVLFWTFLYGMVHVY
UniProt Q99447: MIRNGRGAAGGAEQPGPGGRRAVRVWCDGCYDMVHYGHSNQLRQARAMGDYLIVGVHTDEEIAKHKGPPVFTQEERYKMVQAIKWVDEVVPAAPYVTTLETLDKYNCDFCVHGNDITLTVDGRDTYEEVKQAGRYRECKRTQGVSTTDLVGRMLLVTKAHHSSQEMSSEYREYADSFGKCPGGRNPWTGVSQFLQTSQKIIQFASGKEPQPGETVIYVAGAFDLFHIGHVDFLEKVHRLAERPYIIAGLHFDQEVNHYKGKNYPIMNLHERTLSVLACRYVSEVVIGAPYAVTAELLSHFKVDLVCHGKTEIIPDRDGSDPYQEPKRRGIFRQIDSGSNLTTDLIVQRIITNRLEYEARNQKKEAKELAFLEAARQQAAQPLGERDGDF

Compound: Nc1ncnc2c1ncn2[C@@H]1O[C@H](COP(=O)(O)OP(=O)(O)OP(=O)(O)O)[C@@H](O)[C@H]1O [adenosine triphosphate]
Test: NP40-soluble protein abundance relative to vehicle (solubility fold change) (ratio); higher = more soluble protein in presence of ATP
Summary of the method: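 Crude Jurkat lysate, prepared by Dounce homogenisation, was exposed to eight concentrations from 0.1 to 10 mM for 10 min at room temperature and then 3 min at 37 °C. Solubilisation used 0.8% NP40 with benzonase for 60 min at 4 °C, followed by ultracentrifugation and TMT labelling of the supernatant for LC-MS/MS. After vsn normalisation of intensities, each value is the fold change against the detergent-processed vehicle within each replicate, across three independent experiments.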

Target	NP40-soluble protein abundance (concentration: 1mM)	NP40-soluble protein abundance (concentration: 2mM)	NP40-soluble protein abundance (concentration: 4mM)	NP40-soluble protein abundance (concentration: 6mM)	NP40-soluble protein abundance (concentration: 8mM)	NP40-soluble protein abundance (concentration: 10mM)
UniProt Q9BPX7-2|Q9BPX7	0.979 ± 0.031	0.992 ± 0.047	0.978 ± 0.03	0.978 ± 0.064	0.94 ± 0.063	0.976 ± 0.036
GPA33 (UniProt Q99795)	0.967 ± 0.097	1.02 ± 0.091	0.976 ± 0.1	0.981 ± 0.064	0.941 ± 0.083	0.963 ± 0.11
NAPG (UniProt Q99747)	0.939 ± 0.077	0.938 ± 0.039	0.907 ± 0.043	0.981 ± 0.061	0.914 ± 0.043	0.876 ± 0.036
UniProt Q99871 and related entries	0.965 ± 0.066	0.973 ± 0.058	0.975 ± 0.021	0.973 ± 0.05	0.949 ± 0.035	0.924 ± 0.065
UniProt Q9BXM9 and related entries	0.975 ± 0.043	0.938 ± 0.072	0.96 ± 0.045	0.942 ± 0.085	0.924 ± 0.08	0.95 ± 0.036
SGPP1 (UniProt Q9BX95)	0.928 ± 0.11	0.936 ± 0.056	0.972 ± 0.058	1 ± 0.046	0.936 ± 0.035	0.951 ± 0.058
BCL7B (UniProt Q9BQE9)	0.981 ± 0.13	1.03 ± 0.18	0.983 ± 0.14	1.04 ± 0.14	0.957 ± 0.1	0.973 ± 0.15
SF3B5 (UniProt Q9BWJ5)	1.07 ± 0.079	1.04 ± 0.1	1.07 ± 0.085	1.17 ± 0.22	1.1 ± 0.08	1.08 ± 0.14
UniProt Q9BQ75 and related entries	0.922 ± 0.083	0.96 ± 0.075	1.04 ± 0.047	0.971 ± 0.16	1.07 ± 0.05	1.14 ± 0.071
UniProt Q9BT25 and related entries	0.976 ± 0.035	0.918 ± 0.028	0.935 ± 0.033	0.951 ± 0.061	0.9181 ± 0.0017	0.92 ± 0.051
ECSIT (UniProt Q9BQ95)	1 ± 0.07	0.98 ± 0.053	1.02 ± 0.053	1 ± 0.033	0.983 ± 0.026	0.984 ± 0.031
UniProt Q99767-2	0.825 ± 0.13	0.906 ± 0.09	1.01 ± 0.082	0.978 ± 0.091	0.843 ± 0.096	0.902 ± 0.063
SDF4 (UniProt Q9BRK5)	0.981 ± 0.098	0.988 ± 0.07	0.96 ± 0.032	1.02 ± 0.072	0.956 ± 0.02	0.935 ± 0.052
UniProt Q9BWE0 and related entries	0.964 ± 0.033	0.964 ± 0.029	1.04 ± 0.028	0.972 ± 0.071	0.969 ± 0.067	1.02 ± 0.025
UniProt Q99504 and related entries	1.06 ± 0.033	1.05 ± 0.044	1.05 ± 0.023	1.02 ± 0.08	0.985 ± 0.089	1.03 ± 0.029
KATNB1 (UniProt Q9BVA0)	0.963 ± 0.016	0.994 ± 0.043	0.985 ± 0.011	0.946 ± 0.018	0.9689 ± 0.0088	0.977 ± 0.017
TSG101 (UniProt Q99816)	0.966 ± 0.027	0.9612 ± 0.0022	0.939 ± 0.03	0.968 ± 0.01	0.942 ± 0.016	0.905 ± 0.042
NEU1 (UniProt Q99519)	0.987 ± 0.044	1.04 ± 0.024	1.01 ± 0.043	1.06 ± 0.051	0.989 ± 0.019	0.96 ± 0.054
UniProt Q9BWS9 and related entries	1.03 ± 0.1	1.01 ± 0.074	1.02 ± 0.066	1 ± 0.13	1.12 ± 0.097	1.04 ± 0.035
UniProt Q9BUT1 and related entries	0.933 ± 0.036	0.916 ± 0.026	0.915 ± 0.022	0.914 ± 0.014	0.9 ± 0.024	0.89 ± 0.018

Target	NP40-soluble protein abundance (concentration: 1mM)	NP40-soluble protein abundance (concentration: 2mM)	NP40-soluble protein abundance (concentration: 4mM)	NP40-soluble protein abundance (concentration: 6mM)	NP40-soluble protein abundance (concentration: 8mM)	NP40-soluble protein abundance (concentration: 10mM)
UniProt Q9BTD8 and related entries	1.11 ± 0.023	1.13 ± 0.011	1.18 ± 0.038	1.2 ± 0.023	1.2 ± 0.077	1.24 ± 0.019
UniProt Q9BQA9 and related entries	0.959 ± 0.18	0.979 ± 0.11	1.02 ± 0.098	0.807 ± 0.13	0.923 ± 0.031	1 ± 0.039
UniProt Q9BPZ7 and related entries	1.02 ± 0.085	1.13 ± 0.31	1.06 ± 0.069	1.04 ± 0.059	1.07 ± 0.075	1.09 ± 0.13
HINT2 (UniProt Q9BX68)	1.003 ± 0.0072	0.996 ± 0.015	0.969 ± 0.012	0.971 ± 0.025	0.955 ± 0.062	0.934 ± 0.019
NABP2 (UniProt Q9BQ15)	0.991 ± 0.15	0.945 ± 0.13	0.98 ± 0.22	1.13 ± 0.17	0.942 ± 0.056	1.12 ± 0.035
MIPEP (UniProt Q99797)	1.03 ± 0.072	0.986 ± 0.066	1 ± 0.061	0.963 ± 0.097	0.99 ± 0.04	0.987 ± 0.058
DDA1 (UniProt Q9BW61)	0.933 ± 0.05	0.935 ± 0.078	0.932 ± 0.06	0.978 ± 0.13	0.905 ± 0.044	0.911 ± 0.07
TIPIN (UniProt Q9BVW5)	0.954 ± 0.057	0.924 ± 0.018	0.923 ± 0.044	0.953 ± 0.064	0.91 ± 0.038	0.823 ± 0.089
SORT1 (UniProt Q99523)	0.912 ± 0.016	0.942 ± 0.016	0.923 ± 0.009	0.949 ± 0.024	0.893 ± 0.012	0.907 ± 0.024
UniProt Q9BW91 and related entries	1.04 ± 0.073	1.03 ± 0.069	1.05 ± 0.12	1.04 ± 0.069	1.04 ± 0.13	1.02 ± 0.086
CCT7 (UniProt Q99832)	0.974 ± 0.11	0.908 ± 0.11	0.83 ± 0.021	0.807 ± 0.072	0.86 ± 0.059	0.816 ± 0.065
UniProt Q9BTK6	0.779 ± 0.094	0.754 ± 0.12	0.736 ± 0.043	0.748 ± 0.071	0.693 ± 0.039	0.674 ± 0.099
UBXN6 (UniProt Q9BZV1)	0.957 ± 0.019	0.932 ± 0.039	0.933 ± 0.022	0.934 ± 0.047	0.906 ± 0.019	0.926 ± 0.038
BUD13 (UniProt Q9BRD0)	1.11 ± 0.086	1.12 ± 0.056	1.18 ± 0.068	1.23 ± 0.066	1.2413 ± 0.0006	1.22 ± 0.081
UniProt Q9BSI4-2	1.29 ± 0.06	1.32 ± 0.13	1.49 ± 0.059	1.43 ± 0.14	1.51 ± 0.12	1.56 ± 0.2
NIPSNAP1 (UniProt Q9BPW8)	1.03 ± 0.12	0.946 ± 0.061	0.959 ± 0.058	0.907 ± 0.12	0.984 ± 0.039	0.943 ± 0.072
TSNAX (UniProt Q99598)	0.979 ± 0.036	0.961 ± 0.018	0.938 ± 0.018	0.9637 ± 0.005	0.948 ± 0.011	0.908 ± 0.037
RPAP1 (UniProt Q9BWH6)	1 ± 0.029	0.994 ± 0.015	1.01 ± 0.031	1.02 ± 0.035	0.985 ± 0.058	1.03 ± 0.056
NUP88 (UniProt Q99567)	1.01 ± 0.043	0.999 ± 0.015	1.02 ± 0.012	1.04 ± 0.014	1.07 ± 0.023	1.086 ± 0.0086
UniProt Q9BZI7 and related entries	1 ± 0.042	1.016 ± 0.01	1.013 ± 0.0027	1.06 ± 0.021	1.02 ± 0.023	1.04 ± 0.025

Target	NP40-soluble protein abundance (concentration: 1mM)	NP40-soluble protein abundance (concentration: 2mM)	NP40-soluble protein abundance (concentration: 4mM)	NP40-soluble protein abundance (concentration: 6mM)	NP40-soluble protein abundance (concentration: 8mM)	NP40-soluble protein abundance (concentration: 10mM)
UniProt Q9BRP8-2|Q9BRP8	0.967 ± 0.14	0.975 ± 0.14	0.979 ± 0.12	1.05 ± 0.14	0.946 ± 0.1	0.912 ± 0.14
SPATA5L1 (UniProt Q9BVQ7)	1.4 ± 0.049	1.43 ± 0.092	1.46 ± 0.14	1.42 ± 0.14	1.51 ± 0.2	1.51 ± 0.14
UniProt Q9BZE1 and related entries	1.14 ± 0.049	1 ± 0.15	0.95 ± 0.072	0.844 ± 0.21	1.02 ± 0.21	0.963 ± 0.21
UniProt Q9BSH4	0.975 ± 0.016	0.971 ± 0.02	0.981 ± 0.033	0.949 ± 0.029	0.931 ± 0.023	0.939 ± 0.012
CPNE1 (UniProt Q99829)	0.978 ± 0.091	0.969 ± 0.068	0.93 ± 0.043	0.924 ± 0.11	0.91 ± 0.044	0.947 ± 0.065
CORO1B (UniProt Q9BR76)	1.06 ± 0.091	1.08 ± 0.059	1.06 ± 0.074	1.11 ± 0.081	1.06 ± 0.1	1.09 ± 0.097
LIMD2 (UniProt Q9BT23)	0.991 ± 0.074	1.01 ± 0.059	1.01 ± 0.038	1.05 ± 0.12	0.986 ± 0.079	0.942 ± 0.045
KIF2C (UniProt Q99661)	1.04 ± 0.025	1.03 ± 0.041	1.02 ± 0.041	1.05 ± 0.043	1.03 ± 0.036	1.02 ± 0.038
DESI2 (UniProt Q9BSY9)	0.958 ± 0.043	0.957 ± 0.014	0.964 ± 0.011	0.93061 ± 0.00028	0.924 ± 0.098	0.9507 ± 0.0074
UniProt Q99755-3|A6PW57	1.2 ± 0.022	1.21 ± 0.044	1.25 ± 0.043	1.3 ± 0.035	1.28 ± 0.024	1.27 ± 0.035
UniProt Q9BRJ7 and related entries	0.99 ± 0.078	1.04 ± 0.016	1.02 ± 0.065	0.935 ± 0.09	0.988 ± 0.038	1.03 ± 0.038
THUMPD3 (UniProt Q9BV44)	0.981 ± 0.089	0.968 ± 0.054	0.935 ± 0.064	0.937 ± 0.076	0.949 ± 0.058	0.955 ± 0.056
PARK7 (UniProt Q99497)	0.964 ± 0.029	0.935 ± 0.012	0.888 ± 0.024	0.962 ± 0.018	0.894 ± 0.039	0.883 ± 0.033
EIF2A (UniProt Q9BY44)	0.952 ± 0.024	0.952 ± 0.031	0.933 ± 0.0099	0.953 ± 0.051	0.921 ± 0.024	0.951 ± 0.027
UniProt Q9BTE3 and related entries	1.03 ± 0.072	1.01 ± 0.057	1.01 ± 0.038	0.97 ± 0.059	1.02 ± 0.02	1 ± 0.043
UniProt Q9BYD1 and related entries	1.11 ± 0.039	0.975 ± 0.035	0.974 ± 0.065	0.915 ± 0.2	0.926 ± 0.13	0.943 ± 0.14
UniProt Q9BV81	0.98 ± 0.036	1 ± 0.075	0.967 ± 0.08	0.981 ± 0.063	0.967 ± 0.015	0.98 ± 0.069
MRPL20 (UniProt Q9BYC9)	0.985 ± 0.031	0.941 ± 0.13	1.02 ± 0.23	0.98 ± 0.22	0.926 ± 0.18	0.909 ± 0.18
UniProt Q99447 and related entries	1.03 ± 0.098	1.01 ± 0.089	0.966 ± 0.083	0.955 ± 0.1	1.01 ± 0.079	0.983 ± 0.043
ACAT2 (UniProt Q9BWD1)	0.959 ± 0.049	0.947 ± 0.019	0.923 ± 0.034	0.98 ± 0.022	0.915 ± 0.048	0.917 ± 0.03

An excerpt from above with just NP40-soluble protein abundance (concentration: 2mM) and NP40-soluble protein abundance (concentration: 1mM):
Target,NP40-soluble protein abundance (concentration: 2mM),NP40-soluble protein abundance (concentration: 1mM)
LIMD2 (UniProt Q9BT23),1.01 ± 0.059,0.991 ± 0.074
KIF2C (UniProt Q99661),1.03 ± 0.041,1.04 ± 0.025
DESI2 (UniProt Q9BSY9),0.957 ± 0.014,0.958 ± 0.043
UniProt Q99755-3|A6PW57,1.21 ± 0.044,1.2 ± 0.022
